Patent US20180313827A1
Results are given in words; binding and its absence hold for the method and conditions named. Some binding calls cover weakened binding; strength is not graded here.

Chains of the proteins cited; added tags and fusions are not shown. Residues count along the entry.
UniProt Q9NQI0, residues 1-236: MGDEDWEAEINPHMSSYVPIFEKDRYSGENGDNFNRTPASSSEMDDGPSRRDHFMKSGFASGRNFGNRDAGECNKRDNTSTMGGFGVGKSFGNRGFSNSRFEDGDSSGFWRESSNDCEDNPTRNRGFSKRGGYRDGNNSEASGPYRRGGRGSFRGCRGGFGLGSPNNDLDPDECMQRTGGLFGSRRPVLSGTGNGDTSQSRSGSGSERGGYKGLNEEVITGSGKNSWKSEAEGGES

Target: hDdx4_synth_1_YFP_in_pETM30_2HTb (Ddx4 protein in which the DEAD-box helicase domain is replaced with YFP) (human)
Experiment: co-expression in cultured cells, fluorescence microscopy (co-localisation in organelles)

Ddx4 1-236CFP (from UniProt Q9NQI0 1-236)
binding: binds
